Publication PMC11218997, “Human cytomegalovirus deploys molecular mimicry to recruit VPS4A to sites of virus assembly” (PLOS Pathogens, 2024)

The substances below were run against T1, Human VPS4A-FLAG (human) (UniProt Q9UN37) (assay: co-IP; anti-FLAG (M2) on Protein G Dynabeads from lysates of co-transfected HEK293FT cells, 48 h; lysis buffer 50 mM Tris-HCl pH 8.0, 150 mM NaCl, 5 mM EDTA, 0.5% NP-40; 1 h at room temperature; immunoblot).
T1 sequence: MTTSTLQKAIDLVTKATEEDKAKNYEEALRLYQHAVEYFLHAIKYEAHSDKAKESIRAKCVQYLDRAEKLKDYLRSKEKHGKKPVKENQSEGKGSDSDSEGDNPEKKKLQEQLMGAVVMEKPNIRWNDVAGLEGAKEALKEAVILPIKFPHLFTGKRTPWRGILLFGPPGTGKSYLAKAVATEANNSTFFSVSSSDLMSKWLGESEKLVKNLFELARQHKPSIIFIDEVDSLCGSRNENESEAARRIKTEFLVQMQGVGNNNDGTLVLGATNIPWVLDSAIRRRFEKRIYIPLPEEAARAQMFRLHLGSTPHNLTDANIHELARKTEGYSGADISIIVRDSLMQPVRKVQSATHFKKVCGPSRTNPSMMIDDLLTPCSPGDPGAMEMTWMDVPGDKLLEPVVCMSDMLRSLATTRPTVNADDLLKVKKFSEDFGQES
HCMV pUL71 P315A+P318A (PPAA) was tested, and the binding was “no binding”. For HCMV pUL71 V317D, the binding was “no binding”. In the case of HCMV pUL71 P315A, the binding is reported as “binds”. In the case of HCMV pUL71 P318A, the binding is reported as “binds”. For “C-terminally HA-tagged HCMV pUL71 (human cytomegalovirus (HCMV))”, the binding was “binds”. For “C-terminally HA-tagged EBV BSRF1 (Epstein Barr virus (EBV))”, the binding was “no binding”. In the case of HCMV pUL71 (wild type, full length), the binding is reported as “binds”.

These substances were tested against T2, VPS4A MIT domain (residues 1–84) (human) (UniProt Q9UN37) (assay: ITC; titrants (GST-pUL71, GST-CHMP6 or peptides) titrated into VPS4A MIT domain in the cell; 25°C; 50 mM HEPES pH 8, 100 mM NaCl, 0.5 mM TCEP; 19×2 μL or 12×3 μL injections; one-site binding model; both purified).
T2 sequence: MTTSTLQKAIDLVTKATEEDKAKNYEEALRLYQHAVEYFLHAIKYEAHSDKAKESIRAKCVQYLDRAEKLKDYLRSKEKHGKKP
In the case of “GST-pUL71 (310–336) (domain or fragment)”, the binding is reported as “no binding”. “GST-pUL71(283–361) PPAA (domain or fragment)” was tested, and the binding was “no binding”.

Results are given in words; binding and its absence hold for the method and conditions named. For part of these data: Binding seen in cells or lysates may run through a third protein. For part of these data: Binding calls can cover weak binding; strength is not graded here. For part of these data: Sequences can lack the tags named with a protein.
